Assay results from paper PMC4240632.
Results are given in words; binding and its absence hold for the method and conditions named. In cells and extracts the contact can be indirect. For some assays here: A result given as binding can be weak or reduced; the word gives no strength. One block for each molecule: values may come before it.

Experiments:
[1] = target: T1, Polycomb (Drosophila (endogenous in embryos)) (UniProt P26017); assay: co-IP; Drosophila embryonic nuclear protein extracts; IP with antibodies against the endogenous proteins (dRYBP, SCE, dKDM2, dBRE1; reverse: PSC, PC, PH, E(Z)); Western blot; mock: pre-immune serum
T1 sequence: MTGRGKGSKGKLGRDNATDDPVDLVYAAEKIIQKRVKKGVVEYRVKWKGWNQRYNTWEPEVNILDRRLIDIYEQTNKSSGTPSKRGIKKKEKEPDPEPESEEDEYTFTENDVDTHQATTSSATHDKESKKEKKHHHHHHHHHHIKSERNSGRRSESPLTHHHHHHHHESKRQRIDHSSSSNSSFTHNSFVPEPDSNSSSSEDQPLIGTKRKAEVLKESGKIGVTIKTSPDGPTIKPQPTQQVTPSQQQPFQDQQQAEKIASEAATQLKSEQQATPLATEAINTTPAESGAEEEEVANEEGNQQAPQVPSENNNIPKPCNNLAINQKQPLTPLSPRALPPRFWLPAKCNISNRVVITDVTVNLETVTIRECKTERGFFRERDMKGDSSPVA

[2] = target: T2, E(Z) (Drosophila (endogenous in embryos)) (UniProt Q9VDC6); assay: as above
T2 sequence: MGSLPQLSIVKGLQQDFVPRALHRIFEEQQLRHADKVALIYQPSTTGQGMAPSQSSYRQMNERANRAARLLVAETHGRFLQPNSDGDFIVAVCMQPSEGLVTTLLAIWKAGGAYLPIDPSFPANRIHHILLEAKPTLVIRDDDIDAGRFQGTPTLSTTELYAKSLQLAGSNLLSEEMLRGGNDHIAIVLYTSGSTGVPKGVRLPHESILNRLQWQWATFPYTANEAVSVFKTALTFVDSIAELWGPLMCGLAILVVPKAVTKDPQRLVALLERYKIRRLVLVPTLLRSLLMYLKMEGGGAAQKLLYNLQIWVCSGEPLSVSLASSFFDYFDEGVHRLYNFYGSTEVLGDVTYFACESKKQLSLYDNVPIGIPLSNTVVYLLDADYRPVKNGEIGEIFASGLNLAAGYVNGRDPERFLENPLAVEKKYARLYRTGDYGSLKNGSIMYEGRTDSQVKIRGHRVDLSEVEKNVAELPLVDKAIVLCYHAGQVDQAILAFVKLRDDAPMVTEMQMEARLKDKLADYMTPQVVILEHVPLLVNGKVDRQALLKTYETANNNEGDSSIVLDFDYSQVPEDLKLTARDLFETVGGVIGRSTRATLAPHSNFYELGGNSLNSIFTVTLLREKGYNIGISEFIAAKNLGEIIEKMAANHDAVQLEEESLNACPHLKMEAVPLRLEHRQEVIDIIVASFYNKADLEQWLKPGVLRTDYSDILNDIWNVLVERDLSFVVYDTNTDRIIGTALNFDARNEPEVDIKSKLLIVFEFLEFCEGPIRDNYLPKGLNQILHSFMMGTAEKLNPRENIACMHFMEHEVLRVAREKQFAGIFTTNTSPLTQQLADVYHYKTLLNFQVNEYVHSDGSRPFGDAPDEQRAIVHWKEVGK

[3] = target: T3, dBRE1 (Drosophila (endogenous in embryos)) (UniProt Q9VRP9); assay: as above
T3 sequence: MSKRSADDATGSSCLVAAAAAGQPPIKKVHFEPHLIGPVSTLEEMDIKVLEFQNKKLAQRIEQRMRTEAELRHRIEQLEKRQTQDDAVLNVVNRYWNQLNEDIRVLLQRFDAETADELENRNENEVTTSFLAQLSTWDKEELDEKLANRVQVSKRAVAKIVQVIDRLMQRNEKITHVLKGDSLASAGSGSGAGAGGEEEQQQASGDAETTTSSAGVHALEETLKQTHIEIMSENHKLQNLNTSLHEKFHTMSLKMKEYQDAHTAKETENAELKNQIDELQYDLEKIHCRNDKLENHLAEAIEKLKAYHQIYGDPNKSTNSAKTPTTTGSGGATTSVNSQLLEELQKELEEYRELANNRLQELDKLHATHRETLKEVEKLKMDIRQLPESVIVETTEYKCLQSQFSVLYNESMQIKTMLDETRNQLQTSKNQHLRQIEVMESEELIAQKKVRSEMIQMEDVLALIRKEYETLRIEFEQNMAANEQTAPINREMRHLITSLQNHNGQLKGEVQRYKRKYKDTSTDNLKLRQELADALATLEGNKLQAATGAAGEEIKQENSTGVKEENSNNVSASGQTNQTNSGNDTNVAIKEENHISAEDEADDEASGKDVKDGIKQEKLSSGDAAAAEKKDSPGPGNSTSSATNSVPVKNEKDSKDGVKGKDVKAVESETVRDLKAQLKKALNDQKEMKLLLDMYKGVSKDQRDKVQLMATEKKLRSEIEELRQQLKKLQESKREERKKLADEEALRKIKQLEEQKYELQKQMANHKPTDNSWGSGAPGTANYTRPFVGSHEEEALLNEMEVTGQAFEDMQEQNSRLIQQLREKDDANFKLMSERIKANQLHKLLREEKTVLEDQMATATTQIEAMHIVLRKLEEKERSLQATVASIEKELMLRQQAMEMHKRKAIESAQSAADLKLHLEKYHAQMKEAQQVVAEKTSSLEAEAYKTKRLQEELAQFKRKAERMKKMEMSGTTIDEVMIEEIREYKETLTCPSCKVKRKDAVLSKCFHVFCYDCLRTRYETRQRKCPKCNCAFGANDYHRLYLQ

[4] = target: dRYBP (Drosophila (endogenous in embryos)); assay: as above
[5] = target: dRYBP-GST (Drosophila); assay: pull-down; dRYBP-GST or dRYBPΔNZF-GST as bait; Drosophila embryonic nuclear protein extracts; Western blot; mock: protein-GST; only the target purified
[6] = target: dRYBPΔNZF-GST (Drosophila); assay: as above

- binding [1]: no binding
- binding [2]: no binding
Molecule: dRYBP (Drosophila (endogenous in embryos))

- binding [3]: no binding
Molecule: dKDM2 (Drosophila (endogenous in embryos))

- binding [4]: binds
- binding [5]: binds
- binding [6]: binds
B1: dBRE1 (protein, UniProt Q9VRP9 1-1044)
chain: T3 sequence

- binding [4]: binds
- binding [5]: binds
- binding [6]: binds
B2: SCE (protein, UniProt Q9VB08 1-435)
chain: MTSLDPAPNKTWELSLYELQRKPQEVITDSTEIAVSPRSLHSELMCPICLDMLKKTMTTKECLHRFCSDCIVTALRSGNKECPTCRKKLVSKRSLRADPNFDLLISKIYPSREEYEAIQEKVMAKFNQTQSQQALVNSINEGIKLQSQNRPQRFRTKGGGGGGGGGGNGNGAANVAAPPAPGAPTAVGRNASNQMHVHDTASNDSNSNTNSIDRENRDPGHSGTSAASAITSASNAAPSSSANSGASTSATRMQVDDASNPPSVRSTPSPVPSNSSSSKPKRAMSVLTSERSEESESDSQMDCRTEGDSNIDTEGEGNGELGINDEIELVFKPHPTEMSADNQLIRALKENCVRYIKTTANATVDHLSKYLAMRLTLDLGADLPEACRVLNFCIYVAPQPQQLVILNGNQTLHQVNDKFWKVNKPMEMYYSWKKT

- binding [4]: no binding
B3: E(Z) (protein, UniProt Q9VDC6 1-879)
chain: T2 sequence

- binding [4]: no binding
B4: Polycomb (protein, UniProt P26017 1-390)
chain: T1 sequence
